Laboratory results as given in ChEMBL document CHEMBL4513142, “CO-ADD screening of Indiana University - Purdue University Indianapolis (USA) compounds”.
Several values for one entry are separate records, joined by “and”; a condition that tells them apart may be missing. Identical values can stand only once. Some of the results follow. Potency and affinity values are given separately.

Tested on: Pseudomonas aeruginosa
Settings: Concentration 32 ug.mL-1;, ASSAY_TEST Inhibition of Bacterial Growth, detection method Absorption (OD600), MEDIA CAMHB, plate type 384well, NBS, CORNING #3640, time 18 hr

SMILES	Inhibition (32 ug/mL)	Inhibition [%]
CC(C)C[C@H](NC(=O)c1ccc(Cl)cc1Cl)C(N)=O	6.74% and -9.21%	–
CCCNC(=O)C(Cc1ccccc1)NC(=O)Cc1ccccc1 (configuration not stated)	–	25.17
[C-]#[N+]c1ccc(C(=O)NC(Cc2ccc(C(F)(F)F)cc2)C(=O)NCCC)cc1 (configuration not stated)	–	17.34
NC(Cc1ccccc1I)C(=O)O.O=C(O)C(F)(F)F (configuration not stated)	-20.47% and -2.69%	–
C[C@H](NC(=O)c1ccccc1Cl)C(=O)O	-3.39% and -0.78%	–
O=C(Cc1cccc(Br)c1)N[C@@H](Cc1ccccc1)C(=O)O	0.64% and -5.32%	–
[C-]#[N+]c1ccc(C(=O)NC(CC)C(=O)NCCC)cc1 (configuration not stated)	–	13.69
[C-]#[N+]c1ccc(C(=O)NC(Cc2ccccc2F)C(=O)NCCC)cc1 (configuration not stated)	–	12.45
CCCNC(=O)C(Cc1ccccc1C)NC(=O)c1ccc(C(F)(F)F)cc1 (configuration not stated)	–	13.98
NC(Cc1ccccc1F)C(=O)O.O=C(O)C(F)(F)F (configuration not stated)	-23.91% and -26.05%	–
[C-]#[N+]c1ccc(C(=O)NC(CC#C)C(=O)NCCC)cc1 (configuration not stated)	–	14.53
CCCNC(=O)C(Cc1ccc(F)cc1)NC(=O)c1ccccc1 (configuration not stated)	–	15.85
COc1cc(C(=O)N[C@@H](CC(C)C)C(=O)O)ccc1O	4.81% and 14.24%	–
CC(C)C[C@H](NC(=O)c1cccnc1)C(N)=O	8.83% and -13.69%	–
CCCNC(=O)C(Cc1ccccc1)NC(=O)c1ccc(F)cc1 (configuration not stated)	–	18.15
[C-]#[N+]c1ccc(C(=O)NC(Cc2ccc(F)cc2)C(=O)NCCC)cc1 (configuration not stated)	–	23.54
NC(=O)[C@@H]1CCCN1C(=O)c1ccccn1	13.77% and -3.54%	–
NC(Cc1ccc(F)c(F)c1)C(=O)O.O=C(O)C(F)(F)F (configuration not stated)	-17.31% and -13.86%	–
Cc1ccc(C(=O)NC(Cc2ccccc2C#N)C(=O)O)cc1 (configuration not stated)	8.47% and 1.38%	–
Cc1ccc(C(=O)NC(Cc2cc(F)c(F)cc2F)C(=O)O)cc1 (configuration not stated)	-14.53% and 4.74%	–
CC(C)[C@H](NC(=O)c1cccc(C(F)(F)F)c1)C(=O)O	-2.92% and -9.19%	–
[C-]#[N+]c1ccc(C(=O)NC(CC=C)C(=O)NCCC)cc1 (configuration not stated)	–	9.14
O=C(NC(Cc1ccc(Cl)nc1)C(=O)O)c1ccccc1 (configuration not stated)	0.13% and -0.76%	–
NC(=O)[C@H](Cc1ccccc1)NC(=O)c1cccnc1	25.42% and 22.49%	–
NC(Cc1cccc(F)c1)C(=O)O.O=C(O)C(F)(F)F (configuration not stated)	-32.18% and -12.96%	–
O=C(NC(CCCc1ccccc1)C(=O)O)c1cccc2ccccc12 (configuration not stated)	-9.59% and 6.72%	–
NC(Cc1ccc(F)cc1)C(=O)O.O=C(O)C(F)(F)F (configuration not stated)	-25.43% and -46.24%	–
